Measurements published in PubChem BioAssay AID1347423 (Functional Genomics Laboratory (NCATS/FGL), 2020).
Out of some 52,000 sequences screened, about 210 (0.4%) were called active.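 How the source made its calls: active means gene whose silencing raises cell survival under the drug, median off-target-corrected z-score across its silencing RNAs 2 or more; inactive means the rest.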 The list shows a part of the results.

assay: Resistance to Poly (ADP-Ribose) Polymerase inhibitor: Gene Identification via Genome-wide siRNA Screen; conditions: mouse BRCA2 R2336H ES cells, olaparib, CellTiter-Glo viability; stronger effect = higher value
Procedure, shortened: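 Genome-wide siRNA screen (3 siRNAs/gene, 20 nM) in mouse ES cells carrying hypomorphic BRCA2 R2336H; olaparib 500 nM added 48 h post-transfection, CellTiter-Glo viability 72 h later. Normalized to plate-median negative control; MAD z-scores, gene median, seed-adjusted.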

| Sequence | z-score |
| --- | --- |
| GGCCAAGAAAAAAGAAAGATT against Slc22a2 | inactive: -1.73 |
| GGUAUGUUUUCCUUAAGUGTT against Cdc42se1 | inactive: -0.0253 |
| GGUGUUUGGCAAUCUCAAUTT against Oplah | inactive: 0.666 |
| GGGAGCUUUGGAAAUUUUATT against Zbtb3 | inactive: 0.556 |
| GCUCUUCUCUGUACGACAUTT against Bcas3 | inactive: 1.51 |
| GGAACUAUCCAGUAGGUAGTT against Mill2 | inactive: 1.42 |
| GCCAAGAUGGUUAAAUACCTT against 6430502M16Rik | inactive: -0.129 |
| GCUGGACAUCGACUUUGGATT against Prnd | inactive: 0.801 |
| GCUGAAGGAUCCCAUUAGATT against Cbx2 | inactive: 0.121 |
| CCAUCACUGUCGCCUAUUGTT against Leng4 | inactive: -2.03 |
| GGUAGAAUGAUGUUCAAACTT against 2610028L19Rik | inactive: -1.8 |
| GGAAUUCAAGAAAAGGAUCTT against Plvap | inactive: -0.304 |
| GGAGCUGUUUUCUGUGAAGTT against Mrps2 | inactive: -2.2 |
| CCGGACUUUAUAUGACAACTT against Cd80 | inactive: -0.0946 |
| GCUAGUUGCAUUCUGUGCUTT against Rpl7l1 | inactive: 0.603 |
| GGAAGUUUCAGAAAACAUGTT against Nasp | inactive: 1.28 |
| CCUGGAAAUAUCAAAUUUCTT against Olfr850 | inactive: 0.028 |
| GCGAAAAUAUUUUCCGGGCTT against Itga2 | inactive: 0.573 |
| GGAGAGAAGAAAAAGAAGGTT against Rrbp1 | inactive: 0.803 |
| GCCAAACGAACAACAAAACTT against Chrm3 | inactive: 0.589 |
| UUAUAGAAACGACAAGACUTT against 1110001A23Rik | inactive: 2.02 |
| GGUUGCUACAUGGUUAAUUTT against 6530401C20Rik | inactive: -0.286 |
| GGAGAAAGGUUUUGUUAUGTT against Gtf2h2 | inactive: 1.41 |
| AUAUAACAGUGCCCAGCCUTT against Olfr885 | inactive: 0.61 |
| GGUCUUUCAUCUGACCAGCTT against Slc10a1 | inactive: -1.58 |
| GGAGAUGUUUACAUGUAUUTT against Oact1 | inactive: 0.637 |

| Sequence | z-score |
| --- | --- |
| GGGAAUAGCAAAUAAAGCATT against Lztr1 | inactive: -0.544 |
| GGCUAUCCAAAUUUGAGUCTT against Fert2 | inactive: 0.259 |
| GGUACAUUAACCCUAAAGATT against 4930550C14Rik | inactive: 0.206 |
| GCGUGCAGUGUCGUGAAAGTT against D430018E03Rik | inactive: -0.395 |
| GGAAUCGACAUUGAAUGUGTT against 0610039K22Rik | inactive: -0.267 |
| GCAGUACACUUCCAUAUGGTT against Prlr | inactive: 1.16 |
| GGAGGUGUUAGAUUUUGACTT against Asrgl1 | inactive: 0.861 |
| GCUCACCAGAAUUUGUGGATT against 1700008I05Rik | inactive: 0.154 |
| GGCAAAAAACUGAGAAGAATT against Zfp148 | inactive: -1.15 |
| GGGUCCUCCCUUUUAAGAGTT against 1700123L14Rik | inactive: 0.393 |
| GGUCGUCCCUCUUUAUGGGTT against Rnf5 | inactive: -0.158 |
| CCCGAUCUAUUGCACAAAUTT against Nxt2 | inactive: -0.555 |
| GGAAAUGGAUUUCUUAUGGTT against Cutc | inactive: -1.12 |
| GGAAACCACAUAGAAUAAUTT against Gm604 | inactive: -0.318 |
| GGAUUCUCACCAAAUACUUTT against Oprd1 | inactive: -0.77 |
| GGAUGGUUUUCAUUUGCUUTT against 4732429D16Rik | inactive: 0.124 |
| GGAGAAACAAAAAAGGUGUTT against Srd5a2l | inactive: -0.00262 |
| CCUAGGUGUCACCAUGAACTT against Ssx9 | inactive: 0.765 |
| GGGAAUCUUGUUAUAAGGGTT against V1re9 | inactive: 0.576 |
| GGGUUCAUAUGUUUUGGAUTT against C130050O18Rik | inactive: -0.172 |
| CCGUUAUCUCUUGAAACAUTT against Kitl | inactive: -0.982 |
| GGCAUGUCUAAUGAACUCATT against Acly | inactive: -0.898 |
| CCCUACUAUUGACGAAAACTT against Hoxc12 | inactive: -0.0238 |
| CCUACUGAAACAAUCACACTT against E230031K19 | inactive: 0.272 |
| CCACCUGAUGAGUUUACCGTT against 4930558O21Rik | inactive: 1.05 |
| GGAAUGAGCAUGUUAAAUGTT against Maoa | inactive: -0.182 |

4 neighbouring entries already listed:

| Sequence | z-score |
| --- | --- |
| GGCAAAAAACUGAGAAGAATT against Zfp148 | inactive: -1.15 |
| GGGUCCUCCCUUUUAAGAGTT against 1700123L14Rik | inactive: 0.393 |
| GGUCGUCCCUCUUUAUGGGTT against Rnf5 | inactive: -0.158 |
| CCCGAUCUAUUGCACAAAUTT against Nxt2 | inactive: -0.555 |

Further entries follow.

| Sequence | z-score |
| --- | --- |
| GGACCUCAAAAGCUAUUUUTT against Slco1a6 | inactive: 0.232 |
| GCGAUAAGCAGAAUGGCAGTT against 8030462N17Rik | inactive: 0.187 |
| GGAAGUGCAAGUGACAAAGTT against Adat1 | inactive: 1.65 |
| GGCAUACCGAAAGUUAGCCTT against Dnaja2 | inactive: 0.259 |
| GGUCUUGUUCUCAUCAACATT against Ndrg2 | inactive: 1.91 |
| GGCAGGUGACUCCAAAUGUTT against Hdc | inactive: -0.0551 |
| GCGACCUUUAGUACACGUCTT against Cklfsf1 | inactive: 0.672 |
| GCCACAUCGUAGACAAGUATT against Zfp41 | inactive: -0.832 |
| GGGUUUGUGGGAUACAAUCTT against Smarce1 | inactive: -1.77 |
| GCUUUAUAAAGUGGGUAGATT against Bub1 | inactive: 0.0964 |
| CGCAGAAAGAGCAUCAGAUTT against AU019532 | inactive: -0.875 |
| GGACACCAUCAAUUGAUUATT against 0610012K18Rik | inactive: 0.171 |
| GGUACUCACCGGAUACCAATT against Olfr512 | inactive: -0.24 |
| GCAGCAUCAGCAUUUAUAATT against Nmur2 | inactive: 1.22 |
| GGCCCUGAGAAGAAAACUATT against Syngr3 | inactive: 0.476 |
| GGUCAUCAAUCUCACCACUTT against B930076A02 | inactive: -0.768 |
| GGAAAUGCCAUAGUCCUAUTT against Mrgprb5 | inactive: -0.87 |
| GGAAGCUCGACGGAAGUUCTT against BC033915 | inactive: -1.09 |
| GGCACGACUACAUAUUUAATT against Wdfy3 | inactive: 1.18 |
| CCUUUCUUCCUAGUUCUUCTT against Olfr38 | inactive: -0.287 |
| GGUUAUCACAGAAGACUUATT against Clic6 | inactive: -0.723 |
| GGAUUUUAUGAACAUUUGCTT against 2610037M15Rik | inactive: 0.625 |
| GGUGGUCAUUUAUUCAUGUTT against Daf2 | inactive: 0.675 |
| GCACAUUGCUCACAAGCAUTT against MGC107415 | inactive: 0.584 |
| UAUGACUCCACUCUUCUCUTT against Olfr1158 | inactive: -0.74 |
| CGCAGACAAGCAAGAAGUATT against Olfr735 | inactive: -1.32 |

Part of the list above, reformatted:
Sequence,z-score
GCGAUAAGCAGAAUGGCAGTT against 8030462N17Rik,inactive: 0.187
GGCACGACUACAUAUUUAATT against Wdfy3,inactive: 1.18

(next part)

| Sequence | z-score |
| --- | --- |
| GGAUGCAUAUUUUAGAAGATT against Mkl2 | inactive: 0.228 |
| GCGUGGAAGGUCUGAACACTT against Arfgap3 | inactive: 0.421 |
| GCGUGCUUAUGAACAUAGUTT against Mint | inactive: -0.0656 |
| GGAGACAAAUAUGAUGUAUTT against Hook1 | inactive: -1.94 |
| GCCACACCAAUAGAAGUGUTT against Csnk1g3 | inactive: 0.184 |
| CCUCUGAGUGAUACACUGUTT against Klk9 | inactive: -0.266 |
| CCGUGGUUAUUUAGGACAATT against Rnf33 | inactive: -1.29 |
| GGAAUGGUAAUGCUAUUGGTT against 2610033C09Rik | inactive: -1.04 |
| GGAACCUGAUCCACUACUATT against H2-Bl | inactive: -0.335 |
| GCCCUAGCAAAAUAUGUUUTT against 1700009P03Rik | inactive: 0.439 |
| GGACAGGACCAAAAGGACUTT against Klk4 | inactive: -0.254 |
| GGUAUGUUUUAUCUUGACATT against Olfr851 | inactive: -0.218 |
| GCUAGUUACAAGCAAGCAGTT against 1700065O13Rik | inactive: 0.219 |
| GCUUAAGCAGAAUGGUGCUTT against Arid3b | inactive: 2.25 |
| GGUGGAGAACUAUUACAGCTT against Myf5 | inactive: 0.18 |
| CCUACAUUCCAUUUUAAUGTT against Hydin | inactive: -0.178 |
| GGAAUUUGAUUCUGAAGAATT against Gmnn | inactive: -1.45 |
| GGAUAACGUAAUGAAGAUCTT against Fgfr1 | inactive: 1.57 |
| GGCACAGCAGUCUUGAGCUTT against Retn | inactive: -0.00451 |
| GGAUUCAAAUGUUCAAAGGTT against Il27 | inactive: -0.42 |
| GGCAAUGGAGAGAGAGAUGTT against AV312086 | inactive: -0.714 |
| CCACUCACUUUCGUAUCUUTT against AI427100 | inactive: 0.862 |
| GCUAUGAACUCCACAUCUATT against Mov10 | inactive: 0.43 |
| GGGUCUGAUCUGUAAUUCATT against Svs7 | inactive: -0.251 |
| GGCCAUCAGAGCUACACUUTT against Gpa33 | inactive: 0.157 |
| GGAUUGGAGGUCUUAAAACTT against Mbtps1 | inactive: -0.828 |
